# Test results reported in PubChem BioAssay AID540276 (National Center for Advancing Translational Sciences (NCATS), 2011).
# Where “and” joins values, the source holds several entries; their conditions need not be identical. Equal entries are not always repeated. The whole screen tested about 300,000 compounds, of which about 5,400 (1.8%) were called active. Inconclusive results, whose numbers are uncertain, are shown with a selection of clear calls. The call rests on the fitted dose curve; tested in HEK293 cells. Potencies of inconclusive entries are doubtful fits and often do not repeat.
# Experiment: qHTS for inhibitors of binding or entry into cells for Marburg Virus
# Conditions: Marburg virus pseudotyped entry inhibition, cell reporter; activity change, negative = inhibition: at 37.8 µM (top of the series) unless noted
# On the % scale 0 is the no-effect control and ±100 the full control effect; potency means the concentration at half of the fitted maximal effect.
Structure (SMILES),Potency,"activity change, negative = inhibition"
CCOc1ccc(OCC)c(S(=O)(=O)N2CCCCC2C)c1 (stereo unspecified),"inconclusive: 29.1 µM [inhibitor, single point]",
CCC1(c2ccccc2)NC(=O)N(CC(=O)Nc2cccc(S(=O)(=O)N3CCCCC3)c2)C1=O (stereo unspecified),"inconclusive: 3.98 µM [inhibitor, partial curve, poor fit]",
COc1ccc(NC(=O)c2oc3ccccc3c2NC(=O)c2cc3ccccc3o2)cc1,,inactive: -11.8% [at 46.1 µM]
COC(=O)C1=C(N)N(c2ccccc2F)C2=C(C(=O)CC(C)(C)C2)C1c1ccc(OC)c(OC)c1 (stereo unspecified),"inconclusive: 17.8 µM [inhibitor, single point]",
C=CC#CC[N+]1(CC#Cc2ccccc2)CCOCC1,"inconclusive: 3.66 µM [inhibitor, partial curve, poor fit]",
O=C(Nc1ccccc1O)c1c(O)c2c([nH]c1=O)CCCC2,"inconclusive: 7.08 µM [activator, partial curve, poor fit]",
OC(C#Cc1ccccn1)c1cccs1 (stereo unspecified),"inconclusive: 1.41 µM [inhibitor, partial curve, poor fit]",
Cc1cnc(C(=O)OCC(=O)NC2CCCCC2)cn1,,inactive: -1.44% [at 46.1 µM]
Cc1cccc(C)c1OP(N)(=O)OCC(F)(F)F (stereo unspecified),"inconclusive: 25.1 µM [activator, single point]",
Cc1ccc(C(=O)N/N=C/C2=Cc3ccccc3OC2C)cc1 (stereo unspecified),,inactive: -23.3%
COc1cc(/C=C/C(=O)N2CCOCC2)ccc1OCc1ccccc1,"inconclusive: 22.4 µM [inhibitor, single point]",
COCC(C)n1c(C)cc(C(=O)COC(=O)/C=C/c2cccc(F)c2)c1C (stereo unspecified),"inconclusive: 1.12 µM [inhibitor, full curve, poor fit]",
O=C(N/N=C/c1cc(Br)c(Br)o1)c1cc2ccccc2o1,"inconclusive: 28.2 µM [inhibitor, single point]",
O=C(Nc1ccc(N2CCOCC2)cc1)c1ccncc1,,inactive: 17.8%
CC1=C(C(N)=O)C(c2ccccn2)n2nc(SCc3ccccc3Cl)nc2N1 (stereo unspecified),"inconclusive: 1.16 µM [inhibitor, single point]",
O=[N+]([O-])c1ccc(C(O)CSC(=S)N2CCCCC2)cc1 (stereo unspecified),"inconclusive: 3.55 µM [activator, partial curve, poor fit]",
Cc1ccc(-c2cn3cccc(C)c3n2)cc1,"inconclusive: 3.55 µM [inhibitor, full curve, poor fit]",
Cc1nc(C)c(-c2csc(Nc3cccc(O)c3)n2)s1,"inconclusive: 22.4 µM [inhibitor, single point]",
Cn1c(NCCCN2CCOCC2)nc2c1c(=O)n(Cc1ccc(Cl)cc1Cl)c(=O)n2C,"inconclusive: 20.6 µM [inhibitor, single point]",
CCOC(=O)C1=C(C)N=c2s/c(=C\c3cccn3C)c(=O)n2C1c1cccc(OC)c1OC (stereo unspecified),"inconclusive: 11.2 µM [inhibitor, partial curve, poor fit]",
O=C(CNc1ccccc1)c1ccc([N+](=O)[O-])cc1,"inconclusive: 35.5 µM [activator, single point]",
CCc1ccc(/C=C(/C#N)C(N)=S)cc1,"inconclusive: 25.9 µM [activator, single point]",

Structure (SMILES),Potency,"activity change, negative = inhibition"
CCOc1ccccc1NC(=O)COn1nnc2ccccc21,"inconclusive: 5.62 µM [activator, single point]",
COc1cc(SC)ccc1C(=O)NCCOc1ccccc1Cl,"inconclusive: 2.31 µM [activator, partial curve, poor fit]",
Cc1cc(=O)n2c(n1)NC(Nc1cccc(C)c1C)=NC2c1ccc(F)cc1 (stereo unspecified),"inconclusive: 1.78 µM [inhibitor, full curve, poor fit]",
O=C(Cc1ccccc1[N+](=O)[O-])OCC(=O)c1c[nH]c2ccccc12,,inactive: 11.7%
CCOc1ccc(NC(=O)c2cccnc2SC)cc1,"inconclusive: 5.62 µM [activator, single point]",
N/C(=N\OC(=O)c1ccncc1)c1cccc([N+](=O)[O-])c1,"inconclusive: 3.55 µM [activator, single point]",
Cc1ccc(CN(Cc2cccnc2)C(=S)Nc2cccc(Cl)c2C)cc1,"inconclusive: 22.4 µM [inhibitor, partial curve, poor fit]",
CN1CCN(C(=O)c2cc(Br)cn2C)CC1,"inconclusive: 15.8 µM [inhibitor, single point]",
NS(=O)(=O)c1ccc2nc(NC(=O)C3CCCO3)sc2c1 (stereo unspecified),"inconclusive: 3.16 µM [activator, single point]",
COc1cccc2cc(C(C)N(CCCN3CCOCC3)C(=S)Nc3cc(C)ccc3C)oc12 (stereo unspecified),"inconclusive: 10 µM [inhibitor, partial curve, poor fit]",
COc1ccc(C(c2nnnn2Cc2cccs2)N2CCN(c3ccc(F)cc3)CC2)cc1OC (stereo unspecified),"inactive and inconclusive: 15.8 µM [inhibitor, single point]",
COc1ccc(N2CCN(CC(=O)Nc3cc(C)on3)CC2)cc1,,inactive: 6.39%
COc1ccc(Nc2ncc(C(=O)N3CCN(c4cccc(Cl)c4)CC3)c3ccccc23)cc1,"inconclusive: 35.5 µM [inhibitor, single point]",
COc1ccc(C(=O)NC(=S)NNC(=O)c2ccc3ccccc3n2)cc1,"inconclusive: 35.5 µM [inhibitor, single point]",
Cc1ccc(C)c(-n2c(CCC(=O)O)ccc2-c2ccc(Cl)cc2)c1,,inactive: 1.46% [at 46.1 µM]
O=S(=O)(c1ccc(Cl)c(C(F)(F)F)c1)N1CCN(CC(O)COCC2CCCO2)CC1 (stereo unspecified),inactive,
O=C(COC(=O)c1ccc(-c2nnc(-c3ccccc3)o2)cc1)c1ccccc1,"inconclusive: 0.708 µM [activator, partial curve, poor fit]",
CCOc1ccc(S(=O)(=O)N2CCC(C(=O)N3CCN(c4ccccc4)CC3)CC2)cc1,"inconclusive: 5.62 µM [activator, single point]",
Cn1c(=O)c2c(-c3ccccc3Cl)n(-c3cc(Cl)ccc3O)cc2n(C)c1=O,"inconclusive: 3.16 µM [inhibitor, partial curve, poor fit]",
COc1ccc(NC2CCCN(C(=O)c3ccc4[nH]c(C)c(C)c4c3)C2)cc1 (stereo unspecified),,inactive: -12.5% [at 46.1 µM]
COC(=O)c1ccc(CSc2ncnc3c2sc2nc(N4CCOCC4)c4c(c23)CCCC4)o1,,inactive: -9.52%
Cc1ccc(C(=O)CC2(O)C(=O)N(CCc3ccccc3)c3ccc(Cl)cc32)cc1 (stereo unspecified),,inactive: -16.2% [at 46.1 µM]

# Single records, as listed above.
# COc1ccc(NC2CCCN(C(=O)c3ccc4[nH]c(C)c(C)c4c3)C2)cc1 (stereo unspecified) reads activity change, negative = inhibition: inactive: -12.5% [at 46.1 µM]
# COc1cccc2cc(C(C)N(CCCN3CCOCC3)C(=S)Nc3cc(C)ccc3C)oc12 (stereo unspecified) reads Potency: inconclusive: 10 µM [inhibitor, partial curve, poor fit]
# O=S(=O)(c1ccc(Cl)c(C(F)(F)F)c1)N1CCN(CC(O)COCC2CCCO2)CC1 (stereo unspecified) reads Potency: inactive
# O=C(COC(=O)c1ccc(-c2nnc(-c3ccccc3)o2)cc1)c1ccccc1 reads Potency: inconclusive: 0.708 µM [activator, partial curve, poor fit]

# Next part:

Structure (SMILES),Potency,"activity change, negative = inhibition"
CCOC(=O)c1sc(NC(=O)OC)c(C(=O)OC)c1C,"inconclusive: 12.6 µM [activator, partial curve, poor fit]",
COc1cc(/C=C/C(=O)OCC(=O)Nc2cccc(F)c2)ccc1O,"inconclusive: 6.31 µM [activator, single point]",
O=C(CSc1nnc(COc2ccc(Cl)cc2)o1)NC1CCCCC1,,inactive: 22.4%
c1coc(-c2nnc(SCc3nc4ccccc4[nH]3)o2)c1,"inconclusive: 1.3 µM [activator, partial curve]",
CCCCCOC(=O)CSc1ncnc2c1sc1nc(N3CCOCC3)c3c(c12)CCCC3,,inactive: -11% [at 46.1 µM]
O=[N+]([O-])c1ccc(-c2nnc(CNC3CCCC3)o2)cc1,,inactive: 3.9% [at 46.1 µM]
Nc1ccc[n+](Cc2ccccn2)c1,"inconclusive: 15.8 µM [activator, single point]",
Cc1ccc(C(=O)Nc2sc3c(c2C#N)CCCCC3)cc1C,,inactive: 23.5%
C/C(=N/NC(=O)CC(=O)N/N=C(\C)c1ccc([N+](=O)[O-])cc1)c1ccc([N+](=O)[O-])cc1,"inconclusive: 6.31 µM [activator, partial curve]",
COc1ccc(C2C(O)C(c3c[nH]c4ccccc34)=NN2C(=O)CCl)cc1 (stereo unspecified),active: 3.16 µM,
S=C(Nc1ccc2nc(-c3ccccn3)c(-c3ccccn3)nc2c1)N1CCOCC1,"inconclusive: 20 µM [activator, single point]",
Cc1ccc2c(=O)cc(C(=O)Nc3cccc(Cl)c3C)oc2c1C,,inactive: 24.3% [at 46.1 µM]
CC12c3ccccc3C(c3ccccc31)C1C(=O)N(c3ccncc3)C(=O)C12 (stereo unspecified),"inconclusive: 12.6 µM [inhibitor, single point]",
CC(Sc1cccc[n+]1[O-])C(=O)Nc1ccc(Oc2ccccc2)cc1 (stereo unspecified),"inconclusive: 0.562 µM [activator, full curve, poor fit]",
Cc1nc(Nc2ccccc2Cl)sc1C(=O)Nc1ccccc1,,inactive: -14%
Cc1c(/C=N/NC(=O)C(NC(=O)c2ccc3c(c2)OCO3)C(C)C)c2ccccc2n1C (stereo unspecified),"inconclusive: 35.5 µM [inhibitor, partial curve, poor fit]",
COc1cc([N+](=O)[O-])c2nccnc2c1,,inactive: 12.4% [at 46.1 µM]
COc1ccc(CN(C)CC(=O)Nc2ccccc2C(=O)NC2CC2)cc1F,"inconclusive: 1.41 µM [inhibitor, partial curve, poor fit]",
Cc1ccc(Cl)cc1N1CCN(C(=O)c2cccc3c(=O)c(C)c(-c4ccccc4)oc23)CC1,"inconclusive: 11.2 µM [inhibitor, partial curve, poor fit]",
CC1Cc2ccccc2N1C(=S)NC(=O)c1ccco1 (stereo unspecified),"inconclusive: 35.5 µM [inhibitor, partial curve, poor fit]",
CCN1CC=C2C(C#N)=C(N)C(C#N)(C#N)C(CCc3ccccc3)C2C1 (stereo unspecified),"inconclusive: 13 µM [inhibitor, partial curve, poor fit]",
CSCCC1NC2(C(=O)Nc3ccc(Cl)cc32)[C@@H]2C(=O)N(C3CCCC3)C(=O)[C@H]12 (stereo partly specified),"inconclusive: 7.3 µM [inhibitor, partial curve, poor fit]",
